Patent US20130131089A1, “DOSAGE FORMS OF ELINOGREL AND METHODS OF INJECTABLE ADMINISTRATION THEREOF” (Portola Phamaceuticals Inc., priority 2010, published 2013)
Where two headings read alike, the source gives them in different places. At least one structure is not confirmed: it was looked up by name or label, or the drawing left a doubt.

Details: for Dissolution time / Conc. by HPLC: 4% mannitol; for Conc. by HPLC: after dissolution

CNc1cc2[nH]c(=O)n(-c3ccc(NC(=O)NS(=O)(=O)c4ccc(Cl)s4)cc3)c(=O)c2cc1F [Elinogrel, [4-(6-Fluoro-7-methylamino-2,4-dioxo-1,4-dihydro-2H-quinazolin-3-yl)-phenyl]-5-chloro-thiophen-2-yl-sulfonylurea]
Dissolution time (50 mM glycine, 50° C., impeller, 250 mL, targeted pH 9.0, targeted 20 mg/mL, listed as Elinogrel free acid): did not fully dissolve
Dissolution time (50 mM glycine, 50° C., impeller, 250 mL, targeted pH 9.3, targeted 20 mg/mL, listed as Elinogrel free acid): did not fully dissolve
Dissolution time (50 mM glycine, 50° C., vortex, 1 mL, final pH 9.5, target 15 mg/mL): 55 min
Dissolution time (50 mM glycine, 50° C., vortex, 1 mL, final pH 9.8, target 15 mg/mL): 22 min
Dissolution time (50 mM glycine, 50° C., vortex, 1 mL, final pH 10.0, target 15 mg/mL): 10 min
Dissolution time (50 mM glycine, RT, rocker, 1 mL, final pH 9.5, target 15 mg/mL): >240 min
Dissolution time (50 mM glycine, RT, rocker, 1 mL, final pH 10.0, target 15 mg/mL): 45 min
Dissolution time (RT, stirring, 100 mL, NaOH in water pH ca. 11.2 dropping to 10, then 10 mM glycine, final pH 9.2, 15 mg/ml): 55 min
Conc. by HPLC (50 mM glycine, 50° C., vortex, 1 mL, final pH 9.5): 15.2 mg/mL
Conc. by HPLC (50 mM glycine, 50° C., vortex, 1 mL, final pH 9.8): 15.3 mg/mL
Conc. by HPLC (50 mM glycine, 50° C., vortex, 1 mL, final pH 10.0): 15.2 mg/mL
Conc. by HPLC (50 mM glycine, RT, rocker, 1 mL, final pH 9.5): 15.1 mg/mL
Conc. by HPLC (50 mM glycine, RT, rocker, 1 mL, final pH 9.7): 15.4 mg/mL
Conc. by HPLC (50 mM glycine, RT, rocker, 1 mL, final pH 10.0): 15.3 mg/mL
precipitation on storage (in situ sodium salt, pH 9.5 to 10, 1 mL scale, 15 mg/mL, stored at 4° C. or ambient temperature for fifteen days): No precipitations
purity after pH excursion (pH raised to 11.2, dropping to 10, final pH 9.2): not impacted
dissolution time of solids after extra NaOH (suspension at pH 9.0 (50 mM glycine, 4% mannitol, targeted 20 mg/mL), pH increased to 10.3): 1 h
